The supplement of paper PMC10849652
Some of the results follow. Residues, ends and D or L forms follow the SMILES beside them. *: point of attachment. Cbz = O=C(OCc1ccccc1)*

Chains of the proteins cited; added tags and fusions are not shown. Lines headed by an entry give the natural chain unless they say otherwise; changes in a name come on top.
UniProt Q16881, whole entry, looked up: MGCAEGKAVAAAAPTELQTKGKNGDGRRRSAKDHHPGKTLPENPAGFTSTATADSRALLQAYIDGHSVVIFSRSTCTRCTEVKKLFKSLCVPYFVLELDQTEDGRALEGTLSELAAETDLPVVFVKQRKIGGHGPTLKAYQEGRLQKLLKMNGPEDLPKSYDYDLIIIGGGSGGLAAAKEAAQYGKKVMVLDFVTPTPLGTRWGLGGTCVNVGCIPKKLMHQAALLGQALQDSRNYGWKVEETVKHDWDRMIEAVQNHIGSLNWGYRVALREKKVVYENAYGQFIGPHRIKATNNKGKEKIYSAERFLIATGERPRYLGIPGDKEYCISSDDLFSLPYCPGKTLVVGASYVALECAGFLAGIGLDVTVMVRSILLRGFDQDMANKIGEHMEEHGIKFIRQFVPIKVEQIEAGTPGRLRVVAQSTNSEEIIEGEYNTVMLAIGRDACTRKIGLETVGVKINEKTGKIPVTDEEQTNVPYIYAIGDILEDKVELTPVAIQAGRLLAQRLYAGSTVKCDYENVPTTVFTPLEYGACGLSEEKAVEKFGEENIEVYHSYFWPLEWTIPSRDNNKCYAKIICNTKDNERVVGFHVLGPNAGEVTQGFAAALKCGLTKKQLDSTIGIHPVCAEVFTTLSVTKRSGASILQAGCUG
UniProt P33981: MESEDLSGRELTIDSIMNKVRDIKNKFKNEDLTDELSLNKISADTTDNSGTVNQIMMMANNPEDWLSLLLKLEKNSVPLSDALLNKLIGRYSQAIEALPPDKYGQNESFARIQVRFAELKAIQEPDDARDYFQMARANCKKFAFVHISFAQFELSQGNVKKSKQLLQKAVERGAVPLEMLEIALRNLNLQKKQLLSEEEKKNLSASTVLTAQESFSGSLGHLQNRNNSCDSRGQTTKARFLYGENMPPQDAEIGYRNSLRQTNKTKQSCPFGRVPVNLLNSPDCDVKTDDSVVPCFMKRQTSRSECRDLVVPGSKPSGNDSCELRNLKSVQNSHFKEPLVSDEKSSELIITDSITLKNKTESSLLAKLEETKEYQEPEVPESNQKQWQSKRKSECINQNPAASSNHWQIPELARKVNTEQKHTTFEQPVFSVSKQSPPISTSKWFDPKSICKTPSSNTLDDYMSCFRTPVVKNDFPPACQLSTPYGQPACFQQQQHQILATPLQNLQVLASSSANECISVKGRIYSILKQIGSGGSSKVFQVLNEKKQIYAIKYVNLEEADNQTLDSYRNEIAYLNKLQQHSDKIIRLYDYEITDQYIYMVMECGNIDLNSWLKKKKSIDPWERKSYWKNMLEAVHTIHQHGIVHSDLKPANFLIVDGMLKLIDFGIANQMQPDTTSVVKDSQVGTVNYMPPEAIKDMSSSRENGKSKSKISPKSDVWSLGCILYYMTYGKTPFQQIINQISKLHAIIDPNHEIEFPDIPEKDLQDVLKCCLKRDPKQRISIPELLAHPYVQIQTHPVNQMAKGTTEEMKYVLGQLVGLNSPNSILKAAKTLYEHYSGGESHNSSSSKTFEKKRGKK
UniProt Q96RR1: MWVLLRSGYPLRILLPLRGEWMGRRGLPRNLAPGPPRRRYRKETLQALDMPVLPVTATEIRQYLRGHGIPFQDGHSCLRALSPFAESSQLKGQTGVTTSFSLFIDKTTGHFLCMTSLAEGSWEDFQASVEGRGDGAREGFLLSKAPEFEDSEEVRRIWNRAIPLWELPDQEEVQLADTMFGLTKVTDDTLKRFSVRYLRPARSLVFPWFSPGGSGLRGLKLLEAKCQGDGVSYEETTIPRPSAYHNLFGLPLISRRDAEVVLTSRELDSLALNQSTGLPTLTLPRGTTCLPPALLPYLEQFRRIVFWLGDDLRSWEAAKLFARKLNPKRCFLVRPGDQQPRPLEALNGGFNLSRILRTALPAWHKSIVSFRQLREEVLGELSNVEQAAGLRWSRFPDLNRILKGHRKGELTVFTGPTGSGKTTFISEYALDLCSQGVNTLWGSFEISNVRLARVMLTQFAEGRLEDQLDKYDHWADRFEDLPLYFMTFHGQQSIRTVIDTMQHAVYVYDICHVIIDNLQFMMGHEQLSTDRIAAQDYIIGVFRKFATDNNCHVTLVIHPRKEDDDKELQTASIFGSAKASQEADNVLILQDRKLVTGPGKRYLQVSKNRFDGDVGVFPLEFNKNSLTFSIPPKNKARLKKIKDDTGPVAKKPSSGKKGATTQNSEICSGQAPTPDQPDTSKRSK
UniProt Q5VYS8: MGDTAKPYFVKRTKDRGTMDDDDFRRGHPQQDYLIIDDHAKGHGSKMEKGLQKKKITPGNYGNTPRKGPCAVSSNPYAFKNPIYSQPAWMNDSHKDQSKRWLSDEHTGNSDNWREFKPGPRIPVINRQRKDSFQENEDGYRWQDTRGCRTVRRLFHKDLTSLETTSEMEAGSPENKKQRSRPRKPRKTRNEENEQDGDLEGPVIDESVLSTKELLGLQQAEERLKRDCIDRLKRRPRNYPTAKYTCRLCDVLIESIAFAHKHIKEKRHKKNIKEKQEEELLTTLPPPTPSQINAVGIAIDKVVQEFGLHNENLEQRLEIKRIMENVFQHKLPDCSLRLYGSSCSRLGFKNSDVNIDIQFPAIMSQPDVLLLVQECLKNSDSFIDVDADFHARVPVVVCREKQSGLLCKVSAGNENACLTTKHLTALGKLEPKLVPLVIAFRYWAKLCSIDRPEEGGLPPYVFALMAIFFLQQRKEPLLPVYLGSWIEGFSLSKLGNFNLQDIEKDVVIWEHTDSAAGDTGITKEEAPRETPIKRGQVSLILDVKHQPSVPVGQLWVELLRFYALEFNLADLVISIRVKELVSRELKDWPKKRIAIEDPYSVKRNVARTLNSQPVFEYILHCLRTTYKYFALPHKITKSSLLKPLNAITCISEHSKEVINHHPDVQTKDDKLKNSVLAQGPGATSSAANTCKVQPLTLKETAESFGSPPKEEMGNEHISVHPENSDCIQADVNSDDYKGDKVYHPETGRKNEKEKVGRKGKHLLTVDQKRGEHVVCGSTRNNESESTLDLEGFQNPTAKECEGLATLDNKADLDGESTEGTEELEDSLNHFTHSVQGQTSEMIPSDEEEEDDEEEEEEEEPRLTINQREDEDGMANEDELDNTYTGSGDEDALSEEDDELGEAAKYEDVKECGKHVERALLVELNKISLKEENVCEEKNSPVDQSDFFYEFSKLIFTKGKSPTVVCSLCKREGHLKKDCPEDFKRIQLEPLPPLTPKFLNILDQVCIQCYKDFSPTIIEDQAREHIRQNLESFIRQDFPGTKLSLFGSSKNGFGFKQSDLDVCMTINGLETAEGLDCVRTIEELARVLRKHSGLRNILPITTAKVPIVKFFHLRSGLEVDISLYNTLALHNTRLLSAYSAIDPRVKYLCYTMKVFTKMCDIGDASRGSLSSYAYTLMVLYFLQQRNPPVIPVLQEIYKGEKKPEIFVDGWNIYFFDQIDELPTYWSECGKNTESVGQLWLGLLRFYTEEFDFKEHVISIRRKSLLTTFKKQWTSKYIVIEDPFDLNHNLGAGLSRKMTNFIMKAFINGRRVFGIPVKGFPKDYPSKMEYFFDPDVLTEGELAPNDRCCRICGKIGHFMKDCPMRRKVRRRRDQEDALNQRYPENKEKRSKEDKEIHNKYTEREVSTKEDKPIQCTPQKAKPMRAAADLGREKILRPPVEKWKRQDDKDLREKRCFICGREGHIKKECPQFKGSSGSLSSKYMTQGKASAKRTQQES
UniProt Q96FV3: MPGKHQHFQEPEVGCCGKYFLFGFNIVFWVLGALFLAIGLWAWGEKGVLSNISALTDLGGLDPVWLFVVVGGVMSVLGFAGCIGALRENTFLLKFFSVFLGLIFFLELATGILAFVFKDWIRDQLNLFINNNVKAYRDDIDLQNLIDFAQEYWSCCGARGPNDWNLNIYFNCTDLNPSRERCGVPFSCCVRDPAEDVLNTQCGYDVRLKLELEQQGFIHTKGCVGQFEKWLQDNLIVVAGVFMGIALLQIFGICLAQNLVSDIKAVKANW
UniProt Q8N0Z6: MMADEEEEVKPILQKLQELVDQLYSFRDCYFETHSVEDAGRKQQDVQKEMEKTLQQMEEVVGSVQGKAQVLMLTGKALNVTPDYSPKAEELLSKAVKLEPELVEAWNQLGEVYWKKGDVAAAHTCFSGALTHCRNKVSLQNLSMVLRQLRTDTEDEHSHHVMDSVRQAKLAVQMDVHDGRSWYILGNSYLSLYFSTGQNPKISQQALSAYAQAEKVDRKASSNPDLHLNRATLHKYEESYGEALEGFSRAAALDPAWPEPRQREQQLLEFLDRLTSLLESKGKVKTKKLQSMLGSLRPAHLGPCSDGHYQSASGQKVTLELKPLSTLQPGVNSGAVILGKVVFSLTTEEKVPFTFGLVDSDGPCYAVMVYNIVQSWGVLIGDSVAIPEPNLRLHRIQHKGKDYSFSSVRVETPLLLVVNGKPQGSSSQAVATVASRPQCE
UBE2L5, A0A1B0GUS4, UniProt A0A1B0GUS4, whole entry, looked up: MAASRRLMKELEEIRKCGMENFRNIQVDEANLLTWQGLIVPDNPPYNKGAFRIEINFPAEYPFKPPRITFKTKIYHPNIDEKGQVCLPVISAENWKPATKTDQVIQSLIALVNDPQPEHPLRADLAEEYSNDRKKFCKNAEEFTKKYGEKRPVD
UniProt Q7Z4L5: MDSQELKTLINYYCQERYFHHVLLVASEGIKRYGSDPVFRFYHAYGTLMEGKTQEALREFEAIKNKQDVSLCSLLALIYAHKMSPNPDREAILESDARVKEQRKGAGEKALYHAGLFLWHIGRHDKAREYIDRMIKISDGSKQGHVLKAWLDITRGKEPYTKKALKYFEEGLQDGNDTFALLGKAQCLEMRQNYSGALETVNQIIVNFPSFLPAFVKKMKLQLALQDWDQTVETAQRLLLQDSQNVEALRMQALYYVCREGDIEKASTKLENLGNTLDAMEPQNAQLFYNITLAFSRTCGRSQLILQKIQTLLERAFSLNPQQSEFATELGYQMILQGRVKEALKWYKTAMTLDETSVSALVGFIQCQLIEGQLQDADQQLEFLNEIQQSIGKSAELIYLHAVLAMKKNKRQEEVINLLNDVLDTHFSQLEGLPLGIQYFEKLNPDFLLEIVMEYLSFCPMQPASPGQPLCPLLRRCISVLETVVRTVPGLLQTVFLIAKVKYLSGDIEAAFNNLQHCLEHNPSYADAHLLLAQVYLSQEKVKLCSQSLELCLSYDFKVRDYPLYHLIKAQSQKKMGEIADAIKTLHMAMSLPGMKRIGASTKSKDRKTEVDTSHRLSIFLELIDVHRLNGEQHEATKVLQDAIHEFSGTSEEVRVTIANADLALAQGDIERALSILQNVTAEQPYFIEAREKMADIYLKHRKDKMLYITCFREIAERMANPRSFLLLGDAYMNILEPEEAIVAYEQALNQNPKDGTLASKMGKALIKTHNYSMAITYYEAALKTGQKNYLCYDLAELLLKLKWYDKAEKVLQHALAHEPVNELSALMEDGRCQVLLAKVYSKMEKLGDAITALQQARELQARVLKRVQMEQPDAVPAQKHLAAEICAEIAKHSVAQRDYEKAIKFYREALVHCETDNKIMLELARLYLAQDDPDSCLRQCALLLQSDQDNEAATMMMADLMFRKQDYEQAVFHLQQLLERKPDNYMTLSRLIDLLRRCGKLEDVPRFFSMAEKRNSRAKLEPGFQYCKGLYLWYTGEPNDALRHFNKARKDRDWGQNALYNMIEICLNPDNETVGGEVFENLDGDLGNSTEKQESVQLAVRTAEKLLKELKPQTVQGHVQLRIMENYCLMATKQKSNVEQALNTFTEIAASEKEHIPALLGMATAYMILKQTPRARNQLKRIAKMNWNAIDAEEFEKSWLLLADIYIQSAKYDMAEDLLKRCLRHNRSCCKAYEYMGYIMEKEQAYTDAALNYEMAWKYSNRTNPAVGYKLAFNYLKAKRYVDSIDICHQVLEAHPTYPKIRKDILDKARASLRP
UniProt O14933: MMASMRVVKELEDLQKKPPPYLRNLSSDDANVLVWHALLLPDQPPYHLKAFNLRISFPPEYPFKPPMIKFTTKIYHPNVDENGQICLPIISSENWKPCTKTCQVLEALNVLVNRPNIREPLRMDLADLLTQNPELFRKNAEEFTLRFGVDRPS
UniProt Q8N2K1: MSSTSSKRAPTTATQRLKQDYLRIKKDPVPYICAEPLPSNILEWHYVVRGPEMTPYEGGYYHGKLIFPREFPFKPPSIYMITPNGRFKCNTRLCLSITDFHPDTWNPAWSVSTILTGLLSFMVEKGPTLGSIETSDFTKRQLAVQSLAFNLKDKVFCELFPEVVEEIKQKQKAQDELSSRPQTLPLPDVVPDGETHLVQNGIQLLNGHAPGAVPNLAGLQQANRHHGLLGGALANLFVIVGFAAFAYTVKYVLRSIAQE

Columns and labels:
Test in all cases: log2 fold change, soluble protein after heating vs DMSO (PISA); higher = thermal stabilisation; K562 cells, 10 uM, 30 min; active = over 0.2 and 3.5 SD of the protein, either way, in both replicates (recomputed)
[1] = compound: C=CC(=O)N1CCC[C@@H](n2nc(-c3ccc(Oc4ccccc4)cc3)c3c(N)ncnc32)C1 [ibrutinib]
Summary of the method: (§1)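 Soluble protein was defined as the supernatant after 21,000xg for 90 min. It came from K562 cells at 2×10^6 cells/mL given 10 μM compound for 30 min, heated in aliquots for 3 min across 48°C-58°C, pooled, and extracted in PBS with 0.5% NP-40 at 4°C, and was quantified by TMTpro 16plex LC-MS/MS with equalised channel sums. Thermal stability against control samples, from duplicates, is reported as log2 fold change.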

[2] = compound: CC(C)C1=C2N=C(C=C(N2N=C1)NCC3=CC=CC=C3)NCCCCCCN
Summary of the method: as §1

[3] = compound: CC1=C(C2=C(C=C1)C(=O)C3=CC=CC=C3N2CCCN)C
Summary of the method: as §1

[4] = compound: CC1=CC=C(C=C1)SC2=C3C=C(SC3=CN=C2)C(=O)N
Summary of the method: as §1

[5] = compound: CCCS(=O)(=O)Nc1ccc(F)c(C(=O)c2c[nH]c3ncc(Cl)cc23)c1F
Summary of the method: as §1

[6] = compound: CCCc1cc(C)[nH]c(=O)c1CNC(=O)c1cc(-c2ccnc(N3CCN(C)CC3)c2)cc2c1cnn2C(C)C
Summary of the method: as §1

[7] = compound: CCN(CC)Cc1ccc2cc(COC(=O)Nc3ccc(C(=O)NO)cc3)ccc2c1 [givinostat]
Summary of the method: as §1

[8] = compound: CCN(CCCOc1ccc2c(Nc3cc(CC(=O)Nc4cccc(F)c4)[nH]n3)ncnc2c1)CCOP(=O)(O)O [barasertib]
Summary of the method: as §1

[9] = compound: CC(C)(O)CC(=O)NCCn1ccc2ncnc(Nc3ccc(Oc4cccc(C(F)(F)F)c4)c(Cl)c3)c21
Summary of the method: as §1

[10] = compound: CC1=C(C=C(C=C1)NC(=O)C2=CC(=CC=C2)C(C)(C)C#N)NC3=CC4=C(C=C3)N=CN(C4=O)C
Summary of the method: as §1

[11] = compound: CCCCN(Cc1ccc(C(=O)NO)cc1)C(=O)Nc1ccccc1 [Nexturastat A]
Summary of the method: as §1

[12] = compound: CCCS(=O)(=O)Nc1ccc(F)c(C(=O)c2c[nH]c3ncc(-c4ccc(Cl)cc4)cc23)c1F [vemurafenib]
Summary of the method: as §1

[13] = compound: CC(C)(C)Cn1c(N)nc2ccc(-c3[nH]c(C(C)(C)C)nc3-c3ccc(F)cc3)nc21 [ralimetinib]
Summary of the method: as §1

[14] = compound: CC(C)C[C@@H](C=O)NC(=O)[C@H](CC(C)C)NC(=O)[C@H](CC(C)C)NC(=O)OCc1ccccc1
Summary of the method: as §1

[15] = compound: CC1=C(C=C(C=C1)NC(=O)C2=CC(=CC=C2)N(C)C)NC(=O)C3=CC=C(C=C3)O
Summary of the method: as §1

[16] = compound: CC(=O)c1cnc2ccc(-c3cc(Cl)c(O)c(Cl)c3)nc2c1N[C@H]1CC[C@H](CN(C)C)CC1
Summary of the method: as §1

[17] = compound: CC1=C(C(CC(=O)N1)C2=CC=C(C=C2)C(F)(F)F)C(=O)NC3=C(C=C4C(=C3)C=NN4)F
Summary of the method: as §1

[18] = compound: C1COCCN1CCN2C3=CC=CC=C3N=C2NC(=O)C4=CC(=CC=C4)[N+](=O)[O-] [IRAK-1-4 Inhibitor I]
Summary of the method: as §1

[19] = compound: CC(C)N(C[C@H]1O[C@@H](n2cnc3c(N)ncnc32)[C@H](O)[C@@H]1O)[C@H]1C[C@@H](CCc2nc3cc(C(C)(C)C)ccc3[nH]2)C1 [pinometostat]
Summary of the method: as §1

[20] = compound: CC1=NC(=CC=C1)C2=C(N=C(N2)C(C)(C)C)C3=CC4=NC=CN=C4C=C3
Summary of the method: as §1

Measured: log2 fold change

UBAP2L (UniProt F8W726)
inactive: [1] 0.017 | [2] -0.002 | [3] 0.136 | [4] -0.093 | [5] 0.004 | [6] 0.014 | [7] -0.067 | [8] -0.058

TXNRD1 isoform 7 (UniProt Q16881)
inactive: [1] -0.209 | [9] -0.069 | [2] -0.01 | [10] -0.567 | [4] -0.037 | [11] 0.221 | [12] -0.123 | [5] 0.049 | [7] 0.403 | [8] 0.041

TTK (UniProt P33981)
inactive: [13] 0.192 | [9] -0.003 | [14] 0.244 | [15] 0.037 | [11] 0.358 | [12] -0.04

TWNK (UniProt Q96RR1)
inactive: [1] -0.033 | [16] -0.015 | [13] 0.072 | [9] -0.093 | [2] 0.083 | [14] 0.248 | [17] 0.061 | [3] 0.071 | [15] 0.115 | [11] 0.141 | [12] 0.127 | [7] 0.087 | [8] -0.063

Quoted at random: two records from the list
UBAP2L (UniProt F8W726)
inactive: [1] 0.017 | [2] -0.002 | [3] 0.136 | [4] -0.093 | [5] 0.004 | [6] 0.014 | [7] -0.067 | [8] -0.058

TWNK (UniProt Q96RR1)
inactive: [1] -0.033 | [16] -0.015 | [13] 0.072 | [9] -0.093 | [2] 0.083 | [14] 0.248 | [17] 0.061 | [3] 0.071 | [15] 0.115 | [11] 0.141 | [12] 0.127 | [7] 0.087 | [8] -0.063

Next results.

TUT7 (UniProt Q5VYS8)
inactive: [18] 0.004 | [16] 0.019 | [9] 0 | [19] 0.217 | [17] 0.113 | [3] -0.395 | [10] -0.052 | [20] -0.003 | [11] 0.481

TSPAN17 isoform 4 (UniProt Q96FV3)
inactive: [9] -0.338 | [2] -0.097 | [10] -0.024 | [11] -0.093 | [7] -0.124

TTC5 (UniProt Q8N0Z6)
inactive: [13] 0.098 | [14] 0.098 | [10] 0.396 | [15] -0.044

UBE2L5, A0A1B0GUS4
inactive: [2] 0.074 | [3] -0.605 | [12] 0.097 | [7] -0.096

TTC21B (UniProt Q7Z4L5)
inactive: [3] -0.103 | [4] -0.117 | [5] -0.2

UBE2L6 (UniProt O14933)
inactive: [16] -0.12 | [2] -0.033 | [7] 0.041

UBE2J2 isoform 3 (UniProt Q8N2K1)
inactive: [1] 0.086 | [16] -0.017 | [9] -0.019 | [2] -0.185 | [3] 0.02 | [10] -0.085 | [4] 0.024 | [11] 0.028 | [12] 0.214 | [5] -0.027 | [7] 0.009 | [8] 0.006
